Experimental data: PubChem BioAssay AID720505 (Drosophila RNAi Screening Center, 2013)

Assay: 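Knock-downs that reduce calcium influx once internal stores are emptied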 (primary screen)
Cell system: Drosophila S2R+ cells
Knock-down reagent: long dsRNA against Drosophila genes
Challenge: thapsigargin (2 µM) in calcium-free buffer to empty internal stores, then 2 mM calcium added back
Measurement: 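Fluo-4 signal in 384-well plates read on a FLIPR after thapsigargin (2 µM, calcium-free) store depletion and 2 mM calcium add-back; unnormalised mean endpoint per well; screen run twice, selected wells retested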
Reading the numbers: calcium signal and retest calcium signal: higher = more calcium entry after store depletion
Hit rule: 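Knock-downs counted as hits when calcium entry dropped relative to STIM1 positive and Rho1 negative controls present on each plate; roughly 1500 genes called, with reductions of differing size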
Meaning of the calls: active = called as lowering calcium entry; inactive = not called
In all, the deposit lists about 20,000 reagents; below is a random part of those that have a named target and a result. In the full data, about 2,100 (10%) got an active call. 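Raw plate signals without normalisation; calls rest on control-based scores that were not deposited; replicate 2 separates called from uncalled poorly.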 Reagent sequences are not shown. The record does not give: the amount of reagent, the time to read-out.

With CG16779 [DRSC15153], what does the deposit list?
calcium signal, replicate 1: 117; calcium signal, replicate 2: 121; activity call: inactive

What did the screen give for CG34367 [DRSC02238]?
calcium signal, replicate 1: 176; calcium signal, replicate 2: 146; activity call: inactive

What did the screen give for CG34367 [DRSC02850]?
calcium signal, replicate 1: 184; calcium signal, replicate 2: 115; activity call: inactive

With Mabi [DRSC02489], what was measured?
calcium signal, replicate 1: 67.8; calcium signal, replicate 2: 106; retest calcium signal, replicate 1: 115; retest calcium signal, replicate 2: 103; activity call: inactive

What did the screen give for CG15370 [DRSC18042]?
calcium signal, replicate 1: 76.3; calcium signal, replicate 2: 79.3; activity call: inactive

For CG15370 [DRSC23277], what does the deposit list?
calcium signal, replicate 1: 110; calcium signal, replicate 2: 121; activity call: inactive

Which result is listed for CG6180 [DRSC02937]?
calcium signal, replicate 1: 115; calcium signal, replicate 2: 107; activity call: inactive

For Spc25 [DRSC14164], what does the deposit list?
calcium signal, replicate 1: 111; calcium signal, replicate 2: 90.2; activity call: inactive

For RpS10b [DRSC19561], what was measured?
calcium signal, replicate 1: 148; calcium signal, replicate 2: 86.5; retest calcium signal, replicate 1: 6247; retest calcium signal, replicate 2: 112; activity call: inactive

How did the screen score CG8586 [DRSC07218]?
calcium signal, replicate 1: 170; calcium signal, replicate 2: 185; activity call: inactive

Which result is listed for CG5104 [DRSC11765]?
calcium signal, replicate 1: 116; calcium signal, replicate 2: 172; activity call: inactive

How did the screen score Cyp4c3 [DRSC16631]?
calcium signal, replicate 1: 117; calcium signal, replicate 2: 150; activity call: inactive

With Alg9 [DRSC14407], what does the deposit list?
calcium signal, replicate 1: 238; calcium signal, replicate 2: 254; activity call: inactive

How did the screen score t-Grip91 [DRSC01506]?
calcium signal, replicate 1: 145; calcium signal, replicate 2: 85.6; activity call: inactive

For mtTFB2 [DRSC15519], what does the deposit list?
calcium signal, replicate 1: 57.1; calcium signal, replicate 2: 101; activity call: active

What is on record for Debcl [DRSC04965]?
calcium signal, replicate 1: 197; calcium signal, replicate 2: 121; activity call: inactive

With ssp6 [DRSC10677], what does the deposit list?
calcium signal, replicate 1: 99.1; calcium signal, replicate 2: 67; activity call: inactive

Which result is listed for Ir40a [DRSC03732]?
calcium signal, replicate 1: 129; calcium signal, replicate 2: 97.4; activity call: inactive

For Ir40a [DRSC03733], what does the deposit list?
calcium signal, replicate 1: 92.5; calcium signal, replicate 2: 129; activity call: inactive

With eIF4E7 [DRSC17782], what does the deposit list?
calcium signal, replicate 1: 125; calcium signal, replicate 2: 140; activity call: inactive

For eIF4E7 [DRSC18623], how do the results read?
calcium signal, replicate 1: 118; calcium signal, replicate 2: 117; activity call: inactive

With mei-38 [DRSC18564], how do the results read?
calcium signal, replicate 1: 90.4; calcium signal, replicate 2: 67; activity call: active

With Samuel [DRSC02156], what does the deposit list?
calcium signal, replicate 1: 176; calcium signal, replicate 2: 161; activity call: inactive

With Samuel [DRSC02401], how do the results read?
calcium signal, replicate 1: 165; calcium signal, replicate 2: 141; activity call: inactive

For Samuel [DRSC02402], what does the deposit list?
calcium signal, replicate 1: 225; calcium signal, replicate 2: 141; activity call: inactive

What is on record for Samuel [DRSC21731]?
calcium signal, replicate 1: 109; calcium signal, replicate 2: 88.2; activity call: inactive

With Samuel [DRSC23114], how do the results read?
calcium signal, replicate 1: 100; calcium signal, replicate 2: 133; activity call: inactive

What is on record for ND-B14.5A [DRSC18500]?
calcium signal, replicate 1: 67; calcium signal, replicate 2: 129; activity call: inactive

With Ras85D [DRSC16814], what was measured?
calcium signal, replicate 1: 85; calcium signal, replicate 2: 83.8; activity call: inactive

For Psf1 [DRSC08638], how do the results read?
calcium signal, replicate 1: 107; calcium signal, replicate 2: 124; retest calcium signal, replicate 1: 131; retest calcium signal, replicate 2: 112; activity call: inactive

What is on record for Ntl [DRSC03003]?
calcium signal, replicate 1: 117; calcium signal, replicate 2: 119; activity call: inactive

For CG15742 [DRSC19708], what was measured?
calcium signal, replicate 1: 147; calcium signal, replicate 2: 131; activity call: inactive

For CG33642 [DRSC01325], how do the results read?
calcium signal, replicate 1: 174; calcium signal, replicate 2: 88.8; activity call: inactive

With Smn [DRSC10223], what does the deposit list?
calcium signal, replicate 1: 97.3; calcium signal, replicate 2: 116; activity call: inactive

For Gapdh2 [DRSC20246], what was measured?
calcium signal, replicate 1: 114; calcium signal, replicate 2: 120; activity call: inactive

Limited to “calcium signal, replicate 2” (6 entries from above):
mtTFB2 [DRSC15519]	101
Debcl [DRSC04965]	121
ssp6 [DRSC10677]	67
Ir40a [DRSC03732]	97.4
Ir40a [DRSC03733]	129
eIF4E7 [DRSC17782]	140
